This note sets out measurements from article doi:10.1101/2023.10.12.562039.

By UniProt entry, the sequences of proteins in these tests, tags left out.
UniProt Q8LA13: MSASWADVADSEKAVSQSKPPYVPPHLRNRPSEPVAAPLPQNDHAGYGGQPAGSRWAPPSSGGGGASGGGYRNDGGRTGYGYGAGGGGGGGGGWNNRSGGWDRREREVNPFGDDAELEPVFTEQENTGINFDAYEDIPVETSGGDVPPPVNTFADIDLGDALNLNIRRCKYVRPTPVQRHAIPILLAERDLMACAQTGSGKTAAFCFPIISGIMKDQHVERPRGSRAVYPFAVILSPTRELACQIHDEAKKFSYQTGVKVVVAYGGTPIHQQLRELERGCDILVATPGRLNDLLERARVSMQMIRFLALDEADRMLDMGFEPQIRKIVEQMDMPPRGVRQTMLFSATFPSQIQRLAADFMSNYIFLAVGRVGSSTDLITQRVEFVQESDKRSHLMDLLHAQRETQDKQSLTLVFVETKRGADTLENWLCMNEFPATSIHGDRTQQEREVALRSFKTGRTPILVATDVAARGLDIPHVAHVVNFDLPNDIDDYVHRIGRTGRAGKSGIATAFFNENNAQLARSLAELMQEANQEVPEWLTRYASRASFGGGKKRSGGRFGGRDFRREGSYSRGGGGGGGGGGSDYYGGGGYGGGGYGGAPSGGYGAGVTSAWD
UniProt Q9M2F9: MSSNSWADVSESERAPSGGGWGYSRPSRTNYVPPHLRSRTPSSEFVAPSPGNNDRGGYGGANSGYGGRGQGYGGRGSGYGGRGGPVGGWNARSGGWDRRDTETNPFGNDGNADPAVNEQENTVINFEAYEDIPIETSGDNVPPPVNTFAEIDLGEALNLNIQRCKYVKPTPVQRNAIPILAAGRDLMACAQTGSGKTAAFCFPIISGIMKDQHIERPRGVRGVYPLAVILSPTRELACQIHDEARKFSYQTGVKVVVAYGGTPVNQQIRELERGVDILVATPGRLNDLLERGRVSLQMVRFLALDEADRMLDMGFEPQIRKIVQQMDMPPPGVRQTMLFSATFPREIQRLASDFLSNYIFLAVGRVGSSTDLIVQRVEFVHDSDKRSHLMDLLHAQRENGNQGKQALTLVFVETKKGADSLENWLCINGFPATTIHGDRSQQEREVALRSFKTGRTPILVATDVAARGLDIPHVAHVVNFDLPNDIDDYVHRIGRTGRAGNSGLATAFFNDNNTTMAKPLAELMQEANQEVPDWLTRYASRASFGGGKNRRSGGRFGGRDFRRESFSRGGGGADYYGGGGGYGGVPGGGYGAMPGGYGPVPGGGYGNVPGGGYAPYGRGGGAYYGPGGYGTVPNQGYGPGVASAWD

The labels stand for the following.
B1: PAB2 (protein, UniProt P42731 1-629)
chain: MAQVQLQGQTPNGSTAAVTSAPATSGGATATQFGNTSLYVGDLDFNVTDSQLFDAFGQMGTVVTVRVCRDLVTRRSLGYGYVNFTNPQDAARAIQELNYIPLYGKPIRVMYSHRDPSVRRSGAGNIFIKNLDESIDHKALHDTFSSFGNIVSCKVAVDSSGQSKGYGFVQYANEESAQKAIEKLNGMLLNDKQVYVGPFLRRQERDSTANKTKFTNVYVKNLAESTTDDDLKNAFGEYGKITSAVVMKDGEGKSKGFGFVNFENADDAARAVESLNGHKFDDKEWYVGRAQKKSERETELRVRYEQNLKEAADKFQSSNLYVKNLDPSISDEKLKEIFSPFGTVTSSKVMRDPNGTSKGSGFVAFATPEEATEAMSQLSGKMIESKPLYVAIAQRKEDRRVRLQAQFSQVRPVAMQPSVGPRMPVYPPGGPGIGQQMFYGQAPPAMIPPQPGYGYQQQLVPGMRPGGGPVPSFFMPMVQPQQQRPGGGRRPGGIQHSQQQNPMMQQQMHPRGRMFRYPQGRGGSGDVPPYDMGNNMPLTIGALASNLSNATPEQQRTMLGEVLYPLVEQVEAESAAKVTGMLLEMDQTEVLHLLESPEALKAKVAEAMDVLRSVAAGGATEQLASLNLS
B2: Tudor Staphylococcal Nuclease TSN1 (protein, UniProt Q8VZG7 1-991)
chain: MATGAENQWLKGRVKAVTSGDCLVITALSHNRAGPPPEKTITFSSLMAPKMARRGGIDEPFAWESKEFLRKLCIGKEVAFKVDYKVEAIAGREFGSVFLGNENLAKLVVKTGWAKVREPGQQNQDKVSPYIKELLQLEELAKQEGYGRWSKVPGAAEASIRNLPPSAIGDSAGFDAMGLLAANKGKPMEGIVEQVRDGSTIRVYLLPEFQFVQVFVAGVQAPSMGRRTTNGSVVETVPDEPNGDVSAESRGPLTTAQRLAASAASSVEVSSDPFATEAKYFTEHRVLSRDVRIVLEGVDKFNNLIGSVHYSDGETVKDLGLELVENGLAKFVEWSANMMEEEAKKKLKAAELQCKKDKVKMWANYVPPATNSKAIHDQNFTGKVVEVVSGDCLIVADDAVPFGSPAAERRVCLSSIRSPKMGNPRREEKPAPYAREAREFLRQRLIGKQVIVQMEYSRKVTQGDGPTTSGAADRFMDFGSVFLPSAAKADSDEVTAPPAAAIAGSQPVGVNIAELVLVRGFGNVVRHRDFEERSNHYDALLAAEARALAGKKGIHSAKESPAMHITDLTVSAAKKAKDFLPSLQRIRRIPAVVEYVLSGHRFKLYIPKITCSIAFSFSGVRCPGRGEPYSEEAISVMRRRIMQRDVEIEVETVDRTGTFLGSMWESRTNVATVLLEAGLAKMQTSFGADRIAEAHLLEQAERSAKNQKLKIWENYVEGEEVSNGNTNTVETRQKETLKVVVTEVLGGGRFYVQSAGDQKIASIQNQLASLSIKDAPIIGSFNPKRGDIVLAQFSLDNSWNRAMIVTAPRAAVQSPDEKFEVFYIDYGNQETVPYSAIRPIDPSVSAAPGLAQLCRLAYIKVPSLEDDFGPEAGEYLHTVTLGSGKEFKAVIEERDTSGGKVKGQGTGTEFVVTLIAVDDEISVNAAMLQEGIARMEKRQKWGHKGKQAALDALEKFQEEARKSRIGIWQYGDIESDDEDTGPARKPAGGRR

These are yes or no findings as the source states them, for the method shown. Binding seen in cells or lysates may run through a third protein. These calls come from enrichment with a bait or labelling near it, and not all partners need be listed. Tags and fused reporters may be left off the sequences shown.

For the test, the target named is T1, GFP-AGO1 (ARGONAUTE1 fused to GFP, line pAGO1:GFP-AGO1 ago1-27) (Arabidopsis thaliana) (UniProt O04379).
T1 sequence: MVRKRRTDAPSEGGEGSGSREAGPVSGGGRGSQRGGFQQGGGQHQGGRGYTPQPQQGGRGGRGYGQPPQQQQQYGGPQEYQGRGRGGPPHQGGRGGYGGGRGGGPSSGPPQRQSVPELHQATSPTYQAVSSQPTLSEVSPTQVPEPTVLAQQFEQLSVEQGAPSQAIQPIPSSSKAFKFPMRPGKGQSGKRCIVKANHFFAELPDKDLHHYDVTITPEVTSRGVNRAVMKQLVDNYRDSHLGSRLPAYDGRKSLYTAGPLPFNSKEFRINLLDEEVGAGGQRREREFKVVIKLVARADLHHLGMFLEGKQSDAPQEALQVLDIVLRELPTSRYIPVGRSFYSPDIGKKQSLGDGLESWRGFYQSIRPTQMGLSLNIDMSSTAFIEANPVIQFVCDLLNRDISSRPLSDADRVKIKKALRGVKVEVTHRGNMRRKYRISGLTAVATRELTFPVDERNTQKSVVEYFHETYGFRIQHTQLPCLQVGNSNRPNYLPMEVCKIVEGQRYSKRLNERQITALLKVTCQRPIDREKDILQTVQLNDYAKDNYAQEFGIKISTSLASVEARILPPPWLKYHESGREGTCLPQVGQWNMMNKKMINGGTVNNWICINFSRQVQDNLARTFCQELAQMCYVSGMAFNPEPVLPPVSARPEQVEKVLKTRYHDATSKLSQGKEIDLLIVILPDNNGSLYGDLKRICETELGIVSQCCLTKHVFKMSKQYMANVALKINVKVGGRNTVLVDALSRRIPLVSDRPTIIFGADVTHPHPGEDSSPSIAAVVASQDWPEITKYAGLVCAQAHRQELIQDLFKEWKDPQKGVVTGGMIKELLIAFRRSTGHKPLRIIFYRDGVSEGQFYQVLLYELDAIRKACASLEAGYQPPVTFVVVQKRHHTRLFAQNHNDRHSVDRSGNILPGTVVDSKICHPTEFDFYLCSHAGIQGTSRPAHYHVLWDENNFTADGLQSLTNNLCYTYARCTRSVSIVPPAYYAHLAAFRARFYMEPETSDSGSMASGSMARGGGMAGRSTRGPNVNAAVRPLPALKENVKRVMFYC
In words: affinity purification with mass spectrometry.
On to “RNA helicase RH11 (from UniProt Q8LA13 1-612)”, for which the binding result is “binds”.

As for “RNA helicase RH52 (from UniProt Q9M2F9 1-646)”, the binding result is “binds”.

Turning to G3BP1, the binding result is reported as “binds”.

Regarding B1, the binding result was “binds”.

For the molecule B2, the binding entry is recorded as “binds”.
